Taken from: PubChem BioAssay AID686938 (Drosophila RNAi Screening Center, 2013)
In all, the deposit lists about 23,000 reagents; this is a random part of those that have a named target and a result. Over the whole deposit, 75 (0.33%) got an active call. 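Raw plate signals without normalisation; calls rest on plate z-scores that were not deposited; ratio present for only 364 wells.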 The record does not give: the dose of the treatment.

- Screen: 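Fly genes required for calcium entry once internal stores are emptied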 (primary screen)
- Cells: Drosophila S2R+ cells
- Reagents: long dsRNA against Drosophila genes, about 0.25 µg dsRNA per well, roughly 10,000 cells
- Timing: 5 days of knock-down before the calcium assay
- Challenge: thapsigargin (SERCA pump blocker) to empty calcium stores; entry signal taken 4 min after adding it
- Measurement: 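Per-well fluo-4 fluorescence in two replicates, unnormalised, measured in resting cells and 4 min after store depletion by the SERCA blocker thapsigargin; ratio of the two present in few wells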
- Reading the numbers: calcium entry signal: higher = stronger calcium signal after store depletion; entry to resting ratio: higher = more calcium entry relative to resting level; resting calcium signal: higher = higher resting calcium signal
- Units: calcium entry signal in fluorescence units; resting calcium signal in fluorescence units
- Rule for the call: 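Hit if the duplicate-averaged plate z-score for entry over resting signal is under −3; wells with weak total dye signal (Fmax z < −2) or more than 5 off-targets removed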
- Meaning of the calls: active = strongly reduced calcium entry; inactive = no strong reduction

CG8665 [DRSC03098]: calcium entry signal, replicate 1 = 3.75e7; calcium entry signal, replicate 2 = 6.84e7; resting calcium signal, replicate 1 = 1.69e7; resting calcium signal, replicate 2 = 2.73e7; Call = inactive
CG31926 [DRSC00295]: calcium entry signal, replicate 1 = 4.01e7; calcium entry signal, replicate 2 = 3.53e7; resting calcium signal, replicate 1 = 1.79e7; resting calcium signal, replicate 2 = 1.59e7; Call = inactive
RhoGAP93B (Rho GTPase activating protein at 93B) [DRSC15488]: calcium entry signal, replicate 1 = 4.69e7; calcium entry signal, replicate 2 = 4.79e7; resting calcium signal, replicate 1 = 5.32e7; resting calcium signal, replicate 2 = 2.03e7; Call = inactive
CG3408 [DRSC10360]: calcium entry signal, replicate 1 = 2.69e7; calcium entry signal, replicate 2 = 3.51e7; resting calcium signal, replicate 1 = 1.30e7; resting calcium signal, replicate 2 = 1.36e7; Call = inactive
PPO3 (Prophenoloxidase 3) [DRSC04325]: calcium entry signal, replicate 1 = 3.59e7; resting calcium signal, replicate 1 = 1.92e7; Call = inactive
CG13558 [DRSC04196]: calcium entry signal, replicate 1 = 3.59e7; calcium entry signal, replicate 2 = 4.48e7; resting calcium signal, replicate 1 = 1.84e7; resting calcium signal, replicate 2 = 2.04e7; Call = inactive
CG5326 [DRSC13568]: calcium entry signal, replicate 1 = 5.13e7; calcium entry signal, replicate 2 = 3.43e7; resting calcium signal, replicate 1 = 2.59e7; resting calcium signal, replicate 2 = 1.65e7; Call = inactive
CG5326 [DRSC15770]: calcium entry signal, replicate 1 = 4.71e7; calcium entry signal, replicate 2 = 3.05e7; resting calcium signal, replicate 1 = 1.97e7; resting calcium signal, replicate 2 = 1.36e7; Call = inactive
CG13614 [DRSC14617]: calcium entry signal, replicate 1 = 3.71e7; calcium entry signal, replicate 2 = 5.61e7; resting calcium signal, replicate 1 = 1.96e7; resting calcium signal, replicate 2 = 2.25e7; Call = inactive
CG18336 [DRSC06334]: calcium entry signal, replicate 1 = 2.52e7; calcium entry signal, replicate 2 = 4.35e7; resting calcium signal, replicate 1 = 1.26e7; resting calcium signal, replicate 2 = 1.83e7; Call = inactive
CG11379 [DRSC18629]: calcium entry signal, replicate 1 = 5.76e7; calcium entry signal, replicate 2 = 4.99e7; entry to resting ratio = 2.2; resting calcium signal, replicate 1 = 2.59e7; resting calcium signal, replicate 2 = 1.98e7; Call = inactive
Mic26-27 (MICOS subunit 26/27) [DRSC15913]: calcium entry signal, replicate 1 = 2.97e7; calcium entry signal, replicate 2 = 2.65e7; resting calcium signal, replicate 1 = 1.39e7; resting calcium signal, replicate 2 = 1.22e7; Call = inactive
CheB53b (Chemosensory protein B 53b) [DRSC05613]: calcium entry signal, replicate 1 = 2.53e7; calcium entry signal, replicate 2 = 4.29e7; resting calcium signal, replicate 1 = 1.24e7; resting calcium signal, replicate 2 = 1.89e7; Call = inactive
CG42663 [DRSC06158]: calcium entry signal, replicate 1 = 3.64e7; calcium entry signal, replicate 2 = 4.09e7; resting calcium signal, replicate 1 = 1.89e7; resting calcium signal, replicate 2 = 1.90e7; Call = inactive
CG42663 [DRSC06404]: calcium entry signal, replicate 1 = 3.39e7; calcium entry signal, replicate 2 = 5.17e7; resting calcium signal, replicate 1 = 1.65e7; resting calcium signal, replicate 2 = 2.21e7; Call = inactive
CG8520 [DRSC07206]: calcium entry signal, replicate 1 = 3.59e7; calcium entry signal, replicate 2 = 4.31e7; resting calcium signal, replicate 1 = 1.62e7; resting calcium signal, replicate 2 = 2.04e7; Call = inactive
TTLL15 (Tubulin tyrosine ligase-like 15) [DRSC15543]: calcium entry signal, replicate 1 = 3.40e7; calcium entry signal, replicate 2 = 3.47e7; resting calcium signal, replicate 1 = 1.61e7; resting calcium signal, replicate 2 = 1.81e7; Call = inactive
dgo (diego) [DRSC06134]: calcium entry signal, replicate 1 = 4.37e7; calcium entry signal, replicate 2 = 4.34e7; resting calcium signal, replicate 1 = 1.89e7; resting calcium signal, replicate 2 = 1.92e7; Call = inactive
CG42795 [DRSC12772]: calcium entry signal, replicate 1 = 2.30e7; calcium entry signal, replicate 2 = 2.97e7; resting calcium signal, replicate 1 = 1.09e7; resting calcium signal, replicate 2 = 1.44e7; Call = inactive
CG42795 [DRSC15533]: calcium entry signal, replicate 1 = 2.69e7; calcium entry signal, replicate 2 = 2.29e7; resting calcium signal, replicate 1 = 1.53e7; resting calcium signal, replicate 2 = 1.29e7; Call = inactive
Dtwd2 (DTW domain containing 2) [DRSC12501]: calcium entry signal, replicate 1 = 4.30e7; calcium entry signal, replicate 2 = 4.59e7; resting calcium signal, replicate 1 = 2.15e7; resting calcium signal, replicate 2 = 2.12e7; Call = inactive
